No constants are given. Whether binding was seen depends on the method and setting. Some results given as binding are weak or reduced against the parent protein; the word gives no strength.
Biological target: T1, S. cerevisiae Smc1, recombinant (the Smc1 chain of m1) (S. cerevisiae), P32908
T1 chain: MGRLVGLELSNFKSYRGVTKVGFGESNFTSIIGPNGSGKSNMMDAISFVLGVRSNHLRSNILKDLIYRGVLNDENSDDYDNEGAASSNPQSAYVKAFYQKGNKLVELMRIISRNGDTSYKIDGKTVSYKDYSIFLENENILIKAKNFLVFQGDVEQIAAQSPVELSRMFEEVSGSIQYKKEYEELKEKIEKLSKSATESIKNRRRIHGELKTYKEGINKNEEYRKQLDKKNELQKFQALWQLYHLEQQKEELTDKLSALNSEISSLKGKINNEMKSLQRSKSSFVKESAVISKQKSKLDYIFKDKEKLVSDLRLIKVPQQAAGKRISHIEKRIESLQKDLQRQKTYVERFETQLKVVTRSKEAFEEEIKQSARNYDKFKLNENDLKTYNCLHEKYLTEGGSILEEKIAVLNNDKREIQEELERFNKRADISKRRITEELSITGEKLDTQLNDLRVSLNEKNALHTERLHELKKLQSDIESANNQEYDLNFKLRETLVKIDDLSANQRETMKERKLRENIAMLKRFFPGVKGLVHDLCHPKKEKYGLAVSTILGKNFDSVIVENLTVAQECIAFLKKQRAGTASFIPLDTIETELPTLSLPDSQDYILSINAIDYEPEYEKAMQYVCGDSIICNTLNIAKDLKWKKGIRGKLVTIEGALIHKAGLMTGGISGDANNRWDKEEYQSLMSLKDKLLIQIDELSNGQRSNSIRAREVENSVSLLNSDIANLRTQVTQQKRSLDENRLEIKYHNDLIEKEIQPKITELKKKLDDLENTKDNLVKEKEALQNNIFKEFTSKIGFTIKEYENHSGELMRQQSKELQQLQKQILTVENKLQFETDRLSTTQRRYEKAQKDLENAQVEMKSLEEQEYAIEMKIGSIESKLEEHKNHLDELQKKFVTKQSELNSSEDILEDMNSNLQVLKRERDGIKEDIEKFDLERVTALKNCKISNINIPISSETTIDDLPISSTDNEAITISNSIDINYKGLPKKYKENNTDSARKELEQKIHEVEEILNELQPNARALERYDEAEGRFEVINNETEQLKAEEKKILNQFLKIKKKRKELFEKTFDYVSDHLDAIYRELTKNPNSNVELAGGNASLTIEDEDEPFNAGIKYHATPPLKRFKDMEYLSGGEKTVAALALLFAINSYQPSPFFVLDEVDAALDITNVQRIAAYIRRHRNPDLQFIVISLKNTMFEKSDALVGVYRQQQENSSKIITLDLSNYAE
Assay: cross-linking; XL-MS: 0.4 μM cohesin, 0.8 μM full-length Scc2–Scc4 and 0.8 μM 56-bp dsDNA in 20 mM HEPES pH 7.5, 50 mM NaCl, 5 mM DTT, 5 mM MgCl2, 1 mM ATP, 10% glycerol; 5–8 mM d0/d12 DSS, 28 °C 40 min; xQuest/xProphet, FDR 1%; both purified
Settings: remark: other sources report otherwise

B1: S. cerevisiae Scc2, recombinant (the Scc2 chain of m2), Q04002 1-1493 (protein)
chain: MSYPGKDKNIPGRIIEALEDLPLSYLVPKDGLAALVNAPMRVSLPFDKTIFTSADDGRDVNINVLGTANSTTSSIKNEAEKERLVFKRPSNFTSSANSVDYVPTNFLEGLSPLAQSVLSTHKGLNDSINIEKKSEIVSRPEAKHKLESVTSNAGNLSFNDNSSNKKTKTSTGVTMTQANLAEQYLNDLKNILDIVGFDQNSAEIGNIEYWLQLPNKKFVLTTNCLTKLQMTIKNITDNPQLSNSIEITWLLRLLDVMVCNIKFSKSSLKMGLDDSMLRYIALLSTIVLFNIFLLGKNDSNLHRESYIMEPVNFLSDLIESLKILTIEYGSLKIEFDTFQEALELLPKYIRNGPFLDDNVTAKLVYIFSDLLMNNDIEATTNIQFQSFWDNVKRISSDILVSLFGSFDQQRGFIIEELLSHIEKLPTKRIQKKLRKVGNQNIYITDFTFTLMSMLENINCYSFCNQMKDIAPENIDLLKNEYKKQEEFLFNIVEHINDTILERFFKNPSALRYVIDNFVQDLLLLISSPQWPVTEKILSSLLKRLLSVYSPSMQVSANIETICLQLIGNIGSTIFDIKCSTRDHEDNNLIKMINYPETLPHFFKSFEECIAYNETIKCRRSATRFLWNLRLGTILILEEYTKDAKEQIITVDNELKKILEQIKDGGLGPELENREADFSTIKLDYFSILHAFELLNLYDPYLKLILSLLAKDKIKLRSTAIKCLSMLASKDKVILSNPMVKETIHRRLNDSSASVKDAILDLVSINSSYFEFYQQINNNYNDDSIMVRKHVLRINEKMYDETNDIVTKVYVIARILMKIEDEEDNIIDMARLILLNRWILKVHEVLDQPEKLKEISSSVLLVMSRVAIMNEKCSQLFDLFLNFYLLNKEAHSKEAYDKITHVLTILTDFLVQKIVELNSDDTNEKNSIVDKQNFLNLLAKFADSTVSFLTKDHITALYPYMVSDEKSDFHYYILQVFRCTFEKLANFKQKFLYDLETTLLSRLPKMNVREIDEAMPLIWSVATHRHDTARVAKACSSCLSHLHPYINKANNEEAAIVVDGKLQRLIYLSTGFARFCFPKPSNDKIAFLQEGETLYEHITKCLLVLSKDKITHVIRRVAVKNLTKLCGNHPKLFNSRHVLHLLDKEFQSDQLDIKLVILESLYDLFLLEERKSVRNTGVNSTLSSNSILKKKLLKTNRVEFANDGVCSALATRFLDNILQLCLLRDLKNSLVAIRLLKLILKFGYTNPSHSIPTVIALFASTSQYIRHVAYELLEDLFEKYETLVFSSLSRGVTKAIHYSIHTDEKYYYKHDHFLSLLEKLCGTGKKNGPKFFKVLKRIMQSYLDDITDLTSTNSSVQKSIFVLCTNISNITFVSQYDLVSLLKTIDLTTDRLKEVIMDEIGDNVSSLSVSEEKLSGIILIQLSLQDLGTYLLHLYGLRDDVLLLDIVEESELKNKQLPAKKPDISKFSAQLENIEQYSSNGKLLTYFRKHVKDT
  binding: binds
